Assay results reported in US20040138118A1.
No constants are given. Whether binding was seen depends on the method and setting. Binding seen in cells or lysates may run through a third protein. Some entries that bind do so weakly or less than the wild type.

Tests used:
[1] = biological target: T1, myostatin C-terminal dimer (human) (UniProt O14793); assay: co-purification from CHO conditioned medium, SDS-PAGE and western blot (FIG. 3C)
T1 sequence: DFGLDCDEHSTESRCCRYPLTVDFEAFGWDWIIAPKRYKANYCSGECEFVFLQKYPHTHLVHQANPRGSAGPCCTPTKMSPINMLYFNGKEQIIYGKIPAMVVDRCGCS

[2] = biological target: T1, myostatin C-terminal dimer (human); assay: co-purification over hydroxyapatite, lentil lectin, DEAE agarose and heparin columns (FIG. 3C)
[3] = biological target: T1, myostatin C-terminal dimer (human); assay: co-purification of the latent complex from CHO conditioned medium (FIG. 3C)

| binding [1] | binding [2] | binding [3] | Substance |
| --- | --- | --- | --- |
| binds | binds |  | myostatin pro peptide (wild type) (from UniProt O14793 24-266) |
| binds |  | binds | D76A mutant myostatin pro peptide (from UniProt O14793 24-266) |
